Results reported in paper PMC5133869.

By UniProt entry, the sequences of proteins in these tests, tags left out. Where a name states a change or a piece, a line headed by the entry shows the natural chain unless it says otherwise.
UniProt P01375: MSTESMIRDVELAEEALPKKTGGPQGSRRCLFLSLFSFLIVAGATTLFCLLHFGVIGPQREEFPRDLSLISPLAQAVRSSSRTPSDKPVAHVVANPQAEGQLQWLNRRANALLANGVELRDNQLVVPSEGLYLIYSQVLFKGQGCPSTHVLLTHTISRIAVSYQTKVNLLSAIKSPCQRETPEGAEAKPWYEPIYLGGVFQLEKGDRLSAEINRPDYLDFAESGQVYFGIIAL
UniProt Q9Y6D6: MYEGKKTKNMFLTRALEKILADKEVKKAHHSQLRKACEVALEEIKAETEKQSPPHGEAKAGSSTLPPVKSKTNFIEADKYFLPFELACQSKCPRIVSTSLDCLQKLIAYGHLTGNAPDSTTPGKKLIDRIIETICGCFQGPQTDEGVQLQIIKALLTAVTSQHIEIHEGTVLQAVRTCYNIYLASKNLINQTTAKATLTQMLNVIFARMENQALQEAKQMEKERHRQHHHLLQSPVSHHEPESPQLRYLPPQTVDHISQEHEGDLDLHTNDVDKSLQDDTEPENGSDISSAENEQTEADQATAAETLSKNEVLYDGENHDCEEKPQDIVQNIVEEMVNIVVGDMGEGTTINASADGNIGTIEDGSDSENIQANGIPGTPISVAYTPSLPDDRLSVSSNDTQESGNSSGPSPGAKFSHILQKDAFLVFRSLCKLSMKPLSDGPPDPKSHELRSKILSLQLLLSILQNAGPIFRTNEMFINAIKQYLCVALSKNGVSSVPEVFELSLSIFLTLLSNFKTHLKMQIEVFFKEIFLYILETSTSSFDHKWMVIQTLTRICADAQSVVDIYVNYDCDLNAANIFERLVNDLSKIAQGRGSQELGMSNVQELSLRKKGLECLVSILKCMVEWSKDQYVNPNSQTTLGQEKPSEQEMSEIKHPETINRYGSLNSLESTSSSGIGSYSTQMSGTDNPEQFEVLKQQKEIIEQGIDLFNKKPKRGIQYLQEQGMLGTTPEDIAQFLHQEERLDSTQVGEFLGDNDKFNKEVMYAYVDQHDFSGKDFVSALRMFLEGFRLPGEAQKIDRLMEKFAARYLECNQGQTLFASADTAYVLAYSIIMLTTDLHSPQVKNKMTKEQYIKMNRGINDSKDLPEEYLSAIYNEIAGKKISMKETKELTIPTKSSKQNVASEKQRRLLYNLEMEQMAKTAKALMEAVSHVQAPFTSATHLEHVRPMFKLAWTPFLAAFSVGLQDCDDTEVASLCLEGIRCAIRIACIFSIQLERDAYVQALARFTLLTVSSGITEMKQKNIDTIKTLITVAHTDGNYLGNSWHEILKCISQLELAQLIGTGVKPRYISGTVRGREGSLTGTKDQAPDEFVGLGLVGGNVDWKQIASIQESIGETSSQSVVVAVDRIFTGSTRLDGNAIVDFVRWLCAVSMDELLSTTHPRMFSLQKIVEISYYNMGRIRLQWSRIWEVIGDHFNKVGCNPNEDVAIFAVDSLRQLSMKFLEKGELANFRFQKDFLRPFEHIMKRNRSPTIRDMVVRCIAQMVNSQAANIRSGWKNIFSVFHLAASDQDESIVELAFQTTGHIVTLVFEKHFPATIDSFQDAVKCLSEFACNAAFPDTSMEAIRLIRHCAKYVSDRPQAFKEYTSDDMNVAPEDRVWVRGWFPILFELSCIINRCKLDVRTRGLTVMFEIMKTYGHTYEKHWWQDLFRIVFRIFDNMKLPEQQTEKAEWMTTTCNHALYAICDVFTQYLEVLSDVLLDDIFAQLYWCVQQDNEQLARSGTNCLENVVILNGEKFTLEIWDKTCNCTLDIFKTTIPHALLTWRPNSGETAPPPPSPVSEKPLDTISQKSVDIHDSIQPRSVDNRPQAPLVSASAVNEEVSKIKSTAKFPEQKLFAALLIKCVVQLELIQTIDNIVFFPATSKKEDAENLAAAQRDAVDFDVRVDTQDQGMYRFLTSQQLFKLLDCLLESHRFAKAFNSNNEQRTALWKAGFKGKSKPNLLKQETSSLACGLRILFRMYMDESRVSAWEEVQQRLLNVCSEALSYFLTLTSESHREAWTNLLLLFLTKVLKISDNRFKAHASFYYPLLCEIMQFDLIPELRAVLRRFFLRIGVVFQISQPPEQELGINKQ

Target: DYKDDDDK (FLAG)-TNF-α (UniProt P01375)
Assay: co-IP; complex I analysis: HT1080 cells stimulated with 2 μg/mL FLAG-TNF-α for the indicated times, lysed in 20 mM Tris-HCl pH 7.4, 150 mM NaCl, 0.2% Nonidet P40, 10% glycerol; anti-FLAG M2 magnetic beads 4 h at 4 °C, five washes, immunoblotting; control or BIG1 siRNA in Figure 5D; only the target …

Substance: Brefeldin A-inhibited guanine nucleotide-exchange factor 1 (from UniProt Q9Y6D6 1-1849)
- binding: no binding

Results are given in words; binding and its absence hold for the method and conditions named. In cells and extracts the contact can be indirect.
